The target of experiment [1] is T1, COP1-YFP^N (CONSTITUTIVE PHOTOMORPHOGENIC 1 fused with the N-terminal half of YFP) (Arabidopsis) (UniProt P43254).
T1 sequence: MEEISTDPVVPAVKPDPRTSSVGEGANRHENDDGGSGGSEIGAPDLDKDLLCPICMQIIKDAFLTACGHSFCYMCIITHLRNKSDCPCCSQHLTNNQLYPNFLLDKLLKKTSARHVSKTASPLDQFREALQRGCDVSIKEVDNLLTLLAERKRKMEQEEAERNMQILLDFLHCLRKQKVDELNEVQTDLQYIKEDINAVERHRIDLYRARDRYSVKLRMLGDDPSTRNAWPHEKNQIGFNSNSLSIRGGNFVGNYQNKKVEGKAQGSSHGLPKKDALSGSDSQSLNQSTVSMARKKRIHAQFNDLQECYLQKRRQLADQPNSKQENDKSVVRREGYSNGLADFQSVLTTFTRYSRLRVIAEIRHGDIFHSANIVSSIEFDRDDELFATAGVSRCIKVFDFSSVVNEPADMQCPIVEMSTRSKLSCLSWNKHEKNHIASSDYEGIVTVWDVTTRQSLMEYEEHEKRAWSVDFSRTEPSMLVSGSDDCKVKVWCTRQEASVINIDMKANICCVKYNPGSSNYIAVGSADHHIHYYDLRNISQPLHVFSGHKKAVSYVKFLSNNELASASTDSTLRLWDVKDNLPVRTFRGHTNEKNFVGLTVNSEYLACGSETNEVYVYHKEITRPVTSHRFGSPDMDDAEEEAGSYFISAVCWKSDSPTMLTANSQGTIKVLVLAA
In words: split reporter; COP1-YFP^N and SIZ1-YFP^C co-expressed in N. benthamiana leaves by Agrobacterium infiltration; YFP fluorescence in the nucleus read under darkness or after 1 h white light (100 umol m^-2 s^-1).

In experiment [2] the target is T2, Myc-COP1 (expressed in Col-0 protoplasts) (Arabidopsis) (UniProt P43254).
T2 sequence: T1 sequence
As to the kind of experiment: co-IP; Myc-COP1 and SIZ1-GFP separately expressed in Col-0 protoplasts, protein extracts mixed; anti-Myc-conjugated agarose beads; SIZ1-GFP detected with anti-GFP antibody.

No constants are given. Whether binding was seen depends on the method and setting. In cells and extracts the contact can be indirect. Some entries that bind do so weakly or less than the wild type. Tags and fused reporters may be left off the sequences shown.

B1: SIZ1-YFP^C (SUMO E3 ligase SIZ1 fused with the C-terminal half of YFP) (protein, UniProt Q680Q4 1-884)
chain: MDLEANCKEKLSYFRIKELKDVLTQLGLSKQGKKQELVDRILTLLSDEQAARLLSKKNTVAKEAVAKLVDDTYRKMQVSGASDLASKGQVSSDTSNLKVKGEPEDPFQPEIKVRCVCGNSLETDSMIQCEDPRCHVWQHVGCVILPDKPMDGNPPLPESFYCEICRLTRADPFWVTVAHPLSPVRLTATTIPNDGASTMQSVERTFQITRADKDLLAKPEYDVQAWCMLLNDKVLFRMQWPQYADLQVNGVPVRAINRPGGQLLGVNGRDDGPIITSCIRDGVNRISLSGGDVRIFCFGVRLVKRRTLQQVLNLIPEEGKGETFEDALARVRRCIGGGGGDDNADSDSDIEVVADFFGVNLRCPMSGSRIKVAGRFLPCVHMGCFDLDVFVELNQRSRKWQCPICLKNYSVEHVIVDPYFNRITSKMKHCDEEVTEIEVKPDGSWRVKFKRESERRELGELSQWHAPDGSLCPSAVDIKRKMEMLPVKQEGYSDGPAPLKLGIRKNRNGIWEVSKPNTNGLSSSNRQEKVGYQEKNIIPMSSSATGSGRDGDDASVNQDAIGTFDFVANGMELDSISMNVDSGYNFPDRNQSGEGGNNEVIVLSDSDDENDLVITPGPAYSGCQTDGGLTFPLNPPGIINSYNEDPHSIAGGSSGLGLFNDDDEFDTPLWSFPSETPEAPGFQLFRSDADVSGGLVGLHHHSPLNCSPEINGGYTMAPETSMASVPVVPGSTGRSEANDGLVDNPLAFGRDDPSLQIFLPTKPDASAQSGFKNQADMSNGLRSEDWISLRLGDSASGNHGDPATTNGINSSHQMSTREGSMDTTTETASLLLGMNDSRQDKAKKQRSDNPFSFPRQKRSNNEQDHQTRHRSLNKICIILCAGKN
As for B1, the binding entry in experiment [1] is listed as “binds”.

B2: SIZ1-GFP (expressed in Col-0 protoplasts) (protein, UniProt Q680Q4 1-884)
chain: B1 chain
For B2, in experiment [2], the binding entry is given as “binds”.

Values taken from article PMC4851335.
